Experimental data taken from the supplement of paper PMC6411743.
± gives the standard deviation of the averaged measurements. This is one part of the list.

Chains of the proteins cited; added tags and fusions are not shown. Lines headed by an entry give the natural chain unless they say otherwise; changes in a name come on top.
UniProt Q04446: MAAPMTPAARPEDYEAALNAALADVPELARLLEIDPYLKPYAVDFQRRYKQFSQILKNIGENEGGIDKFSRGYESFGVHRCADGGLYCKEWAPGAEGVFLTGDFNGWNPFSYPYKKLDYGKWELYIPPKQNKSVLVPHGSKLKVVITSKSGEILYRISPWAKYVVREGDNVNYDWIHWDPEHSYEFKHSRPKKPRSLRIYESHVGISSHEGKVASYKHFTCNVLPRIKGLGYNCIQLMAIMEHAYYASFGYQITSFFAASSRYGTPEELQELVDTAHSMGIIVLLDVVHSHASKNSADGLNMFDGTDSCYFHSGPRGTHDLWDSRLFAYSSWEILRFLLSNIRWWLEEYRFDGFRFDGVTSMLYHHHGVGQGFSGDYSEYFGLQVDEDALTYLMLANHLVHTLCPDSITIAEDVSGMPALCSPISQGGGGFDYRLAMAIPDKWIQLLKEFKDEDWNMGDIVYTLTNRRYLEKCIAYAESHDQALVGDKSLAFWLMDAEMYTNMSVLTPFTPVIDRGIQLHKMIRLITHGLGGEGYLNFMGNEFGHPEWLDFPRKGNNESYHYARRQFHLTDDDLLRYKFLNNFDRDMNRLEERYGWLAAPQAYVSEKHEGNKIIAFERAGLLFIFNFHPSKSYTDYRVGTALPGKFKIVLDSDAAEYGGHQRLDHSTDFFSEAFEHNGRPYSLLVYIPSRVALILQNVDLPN
UniProt Q13769: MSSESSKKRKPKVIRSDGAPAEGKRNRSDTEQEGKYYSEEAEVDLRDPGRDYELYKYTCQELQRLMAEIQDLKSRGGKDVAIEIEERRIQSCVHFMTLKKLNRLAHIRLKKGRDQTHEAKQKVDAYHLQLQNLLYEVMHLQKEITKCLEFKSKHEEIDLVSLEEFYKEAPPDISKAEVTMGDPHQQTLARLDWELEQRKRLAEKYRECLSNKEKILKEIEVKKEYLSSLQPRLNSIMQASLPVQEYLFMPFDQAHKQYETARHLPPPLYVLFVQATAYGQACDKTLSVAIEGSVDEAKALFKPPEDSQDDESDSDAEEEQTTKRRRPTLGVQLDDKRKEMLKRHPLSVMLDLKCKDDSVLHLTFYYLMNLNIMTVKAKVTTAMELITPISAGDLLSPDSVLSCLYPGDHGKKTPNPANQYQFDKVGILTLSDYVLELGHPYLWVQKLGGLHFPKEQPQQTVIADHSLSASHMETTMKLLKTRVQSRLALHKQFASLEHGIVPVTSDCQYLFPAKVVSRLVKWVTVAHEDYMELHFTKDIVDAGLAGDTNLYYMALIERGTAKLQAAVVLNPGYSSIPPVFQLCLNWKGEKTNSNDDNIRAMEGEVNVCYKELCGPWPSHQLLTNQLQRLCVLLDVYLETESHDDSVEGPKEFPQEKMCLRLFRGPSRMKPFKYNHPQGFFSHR
UniProt Q02224: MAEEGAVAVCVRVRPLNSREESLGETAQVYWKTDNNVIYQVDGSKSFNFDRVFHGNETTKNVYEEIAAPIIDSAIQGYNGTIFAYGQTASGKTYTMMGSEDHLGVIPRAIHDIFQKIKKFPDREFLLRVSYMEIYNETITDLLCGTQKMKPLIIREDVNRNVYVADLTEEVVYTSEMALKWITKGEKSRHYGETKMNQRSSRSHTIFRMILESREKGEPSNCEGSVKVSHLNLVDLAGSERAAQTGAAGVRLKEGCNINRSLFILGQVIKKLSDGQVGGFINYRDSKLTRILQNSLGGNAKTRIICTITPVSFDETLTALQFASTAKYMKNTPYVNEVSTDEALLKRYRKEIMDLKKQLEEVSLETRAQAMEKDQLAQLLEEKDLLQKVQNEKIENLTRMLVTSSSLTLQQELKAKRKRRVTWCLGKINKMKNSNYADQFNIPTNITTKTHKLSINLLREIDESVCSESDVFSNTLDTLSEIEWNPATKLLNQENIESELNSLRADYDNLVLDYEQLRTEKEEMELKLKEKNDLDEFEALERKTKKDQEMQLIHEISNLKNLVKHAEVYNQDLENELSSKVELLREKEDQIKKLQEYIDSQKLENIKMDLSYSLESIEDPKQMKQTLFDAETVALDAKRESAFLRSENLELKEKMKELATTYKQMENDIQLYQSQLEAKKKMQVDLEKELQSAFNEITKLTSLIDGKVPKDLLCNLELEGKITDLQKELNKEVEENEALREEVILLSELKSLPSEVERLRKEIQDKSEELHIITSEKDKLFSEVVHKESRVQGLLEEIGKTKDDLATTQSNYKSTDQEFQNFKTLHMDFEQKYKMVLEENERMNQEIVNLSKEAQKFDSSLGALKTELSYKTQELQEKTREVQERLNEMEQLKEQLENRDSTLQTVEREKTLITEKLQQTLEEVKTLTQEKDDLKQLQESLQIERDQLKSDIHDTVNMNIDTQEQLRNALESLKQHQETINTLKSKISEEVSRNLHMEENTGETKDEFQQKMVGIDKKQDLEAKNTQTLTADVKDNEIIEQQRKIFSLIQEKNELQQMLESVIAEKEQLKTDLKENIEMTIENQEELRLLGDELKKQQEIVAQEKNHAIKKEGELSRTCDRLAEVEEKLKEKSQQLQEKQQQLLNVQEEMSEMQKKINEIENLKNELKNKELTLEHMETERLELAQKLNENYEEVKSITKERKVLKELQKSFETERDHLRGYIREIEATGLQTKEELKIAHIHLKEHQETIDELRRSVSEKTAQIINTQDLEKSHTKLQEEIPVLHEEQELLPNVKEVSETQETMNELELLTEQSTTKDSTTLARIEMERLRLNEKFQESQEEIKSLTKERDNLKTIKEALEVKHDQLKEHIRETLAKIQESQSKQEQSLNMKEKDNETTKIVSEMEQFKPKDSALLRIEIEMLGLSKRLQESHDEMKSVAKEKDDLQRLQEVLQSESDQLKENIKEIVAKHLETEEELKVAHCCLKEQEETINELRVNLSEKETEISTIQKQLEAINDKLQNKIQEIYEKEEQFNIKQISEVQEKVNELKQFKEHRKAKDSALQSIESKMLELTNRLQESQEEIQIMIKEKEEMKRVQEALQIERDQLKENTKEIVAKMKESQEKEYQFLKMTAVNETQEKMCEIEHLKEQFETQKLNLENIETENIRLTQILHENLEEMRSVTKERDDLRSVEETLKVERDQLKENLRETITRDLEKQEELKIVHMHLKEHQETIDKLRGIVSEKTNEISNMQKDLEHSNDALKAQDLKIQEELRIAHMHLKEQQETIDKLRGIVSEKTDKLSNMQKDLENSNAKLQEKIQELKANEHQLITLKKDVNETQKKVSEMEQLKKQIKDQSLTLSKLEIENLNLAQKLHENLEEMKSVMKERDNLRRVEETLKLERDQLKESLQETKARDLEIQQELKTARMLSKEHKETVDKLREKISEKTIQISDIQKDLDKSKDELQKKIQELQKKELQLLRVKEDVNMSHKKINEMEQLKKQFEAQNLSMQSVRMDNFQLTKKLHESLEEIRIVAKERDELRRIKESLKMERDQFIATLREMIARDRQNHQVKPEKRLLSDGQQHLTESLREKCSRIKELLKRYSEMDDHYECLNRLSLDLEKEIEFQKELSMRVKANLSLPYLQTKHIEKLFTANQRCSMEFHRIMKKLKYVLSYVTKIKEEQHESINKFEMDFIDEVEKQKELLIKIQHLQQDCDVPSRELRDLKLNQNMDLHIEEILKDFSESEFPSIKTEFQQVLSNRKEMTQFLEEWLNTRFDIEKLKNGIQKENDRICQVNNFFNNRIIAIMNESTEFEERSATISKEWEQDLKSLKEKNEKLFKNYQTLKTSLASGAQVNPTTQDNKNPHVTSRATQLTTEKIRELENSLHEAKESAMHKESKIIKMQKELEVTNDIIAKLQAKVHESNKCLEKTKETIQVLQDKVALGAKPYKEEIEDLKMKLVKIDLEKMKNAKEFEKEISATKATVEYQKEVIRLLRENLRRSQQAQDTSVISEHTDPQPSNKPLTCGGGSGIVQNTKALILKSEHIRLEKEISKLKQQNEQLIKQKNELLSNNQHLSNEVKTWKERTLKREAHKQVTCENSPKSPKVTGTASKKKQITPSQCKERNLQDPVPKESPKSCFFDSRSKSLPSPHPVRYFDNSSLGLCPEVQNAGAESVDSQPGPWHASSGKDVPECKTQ
UniProt Q14247: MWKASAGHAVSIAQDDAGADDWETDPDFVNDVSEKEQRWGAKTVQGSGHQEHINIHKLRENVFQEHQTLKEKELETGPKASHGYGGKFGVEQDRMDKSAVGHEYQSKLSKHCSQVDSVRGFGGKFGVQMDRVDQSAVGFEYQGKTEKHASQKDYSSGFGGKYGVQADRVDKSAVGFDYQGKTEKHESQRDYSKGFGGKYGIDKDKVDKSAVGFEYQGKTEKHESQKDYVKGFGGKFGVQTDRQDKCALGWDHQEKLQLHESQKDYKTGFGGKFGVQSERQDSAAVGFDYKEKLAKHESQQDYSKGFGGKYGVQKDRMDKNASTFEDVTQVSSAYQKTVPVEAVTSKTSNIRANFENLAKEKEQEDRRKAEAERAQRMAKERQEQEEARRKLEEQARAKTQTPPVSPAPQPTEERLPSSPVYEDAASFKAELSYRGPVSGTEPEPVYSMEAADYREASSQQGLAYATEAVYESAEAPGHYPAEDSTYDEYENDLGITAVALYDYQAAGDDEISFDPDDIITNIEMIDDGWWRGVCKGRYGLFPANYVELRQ
UniProt Q01459: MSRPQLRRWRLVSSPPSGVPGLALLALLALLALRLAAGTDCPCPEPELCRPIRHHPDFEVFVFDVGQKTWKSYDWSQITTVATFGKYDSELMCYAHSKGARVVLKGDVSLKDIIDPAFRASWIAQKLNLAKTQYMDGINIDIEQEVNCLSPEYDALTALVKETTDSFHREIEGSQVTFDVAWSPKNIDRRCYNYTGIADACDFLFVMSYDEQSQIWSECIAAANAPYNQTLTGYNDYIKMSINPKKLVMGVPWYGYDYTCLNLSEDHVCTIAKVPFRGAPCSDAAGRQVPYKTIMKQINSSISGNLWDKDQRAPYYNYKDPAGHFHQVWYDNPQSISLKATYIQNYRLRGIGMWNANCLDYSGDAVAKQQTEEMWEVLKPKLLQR

Compound: Nc1nc2c(ncn2[C@@H]2O[C@H](COP(=O)(O)OP(=O)(O)OP(=O)(O)O)[C@@H](O)[C@H]2O)c(=O)[nH]1 [guanosine triphosphate]
Test: NP40-soluble protein abundance relative to vehicle (solubility fold change) (ratio); higher = more soluble protein in presence of GTP
Description: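 Solubility proteome profiling in Jurkat crude lysate. Lysate was treated with Mg-GTP (0.1-10 mM) for 10 min at room temperature and 3 min at 37 °C, then solubilised with 0.8% NP40 and benzonase, followed by ultracentrifugation. Proteins were quantified by TMT10 LC-MS/MS; the value is the NP40-soluble abundance relative to the NP40-processed vehicle, from 3 independent experiments.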

GBE1 (UniProt Q04446)
NP40-soluble protein abundance (concentration: 0.1mM): 1.01 ± 0.021
NP40-soluble protein abundance (concentration: 0.5mM): 1 ± 0.028
NP40-soluble protein abundance (concentration: 1mM): 0.9411 ± 0.0057
NP40-soluble protein abundance (concentration: 2mM): 0.907 ± 0.032
NP40-soluble protein abundance (concentration: 4mM): 0.896 ± 0.048
NP40-soluble protein abundance (concentration: 6mM): 0.889 ± 0.027
NP40-soluble protein abundance (concentration: 8mM): 0.869 ± 0.034
NP40-soluble protein abundance (concentration: 10mM): 0.84 ± 0.067

THOC5 (UniProt Q13769)
NP40-soluble protein abundance (concentration: 0.1mM): 1.18 ± 0.0098
NP40-soluble protein abundance (concentration: 0.5mM): 1.35 ± 0.093
NP40-soluble protein abundance (concentration: 1mM): 1.5 ± 0.18
NP40-soluble protein abundance (concentration: 2mM): 1.83 ± 0.36
NP40-soluble protein abundance (concentration: 4mM): 2.21 ± 0.56
NP40-soluble protein abundance (concentration: 6mM): 2.3 ± 0.66
NP40-soluble protein abundance (concentration: 8mM): 2.45 ± 0.77
NP40-soluble protein abundance (concentration: 10mM): 2.37 ± 0.74

CENPE (UniProt Q02224)
NP40-soluble protein abundance (concentration: 0.1mM): 1.12 ± 0.013
NP40-soluble protein abundance (concentration: 0.5mM): 0.98 ± 0.034
NP40-soluble protein abundance (concentration: 1mM): 1.2 ± 0.022
NP40-soluble protein abundance (concentration: 2mM): 1.05 ± 0.074
NP40-soluble protein abundance (concentration: 4mM): 1.241 ± 0.0034
NP40-soluble protein abundance (concentration: 6mM): 1.04 ± 0.026
NP40-soluble protein abundance (concentration: 8mM): 1.3 ± 0.11
NP40-soluble protein abundance (concentration: 10mM): 1.08 ± 0.094

UniProt Q14247 and related entries
NP40-soluble protein abundance (concentration: 0.1mM): 0.994 ± 0.06
NP40-soluble protein abundance (concentration: 0.5mM): 1.03 ± 0.072
NP40-soluble protein abundance (concentration: 1mM): 1.04 ± 0.087
NP40-soluble protein abundance (concentration: 2mM): 1.02 ± 0.064
NP40-soluble protein abundance (concentration: 4mM): 1.07 ± 0.065
NP40-soluble protein abundance (concentration: 6mM): 1.04 ± 0.06
NP40-soluble protein abundance (concentration: 8mM): 1.11 ± 0.1
NP40-soluble protein abundance (concentration: 10mM): 1.07 ± 0.065

CTBS (UniProt Q01459)
NP40-soluble protein abundance (concentration: 0.1mM): 0.937 ± 0.0074
NP40-soluble protein abundance (concentration: 0.5mM): 0.95 ± 0.04
NP40-soluble protein abundance (concentration: 1mM): 0.909 ± 0.04
NP40-soluble protein abundance (concentration: 2mM): 0.918 ± 0.07
NP40-soluble protein abundance (concentration: 4mM): 0.863 ± 0.054
NP40-soluble protein abundance (concentration: 6mM): 0.894 ± 0.04
NP40-soluble protein abundance (concentration: 8mM): 0.881 ± 0.035
NP40-soluble protein abundance (concentration: 10mM): 0.892 ± 0.055
